In this experiment the target is amotL2 (angiomotin like 2), endogenous in MDCK cells (dog (endogenous in MDCK)). Kind of experiment: co-IP; endogenous proteins of MDCK cells; lysate (150 mM NaCl, 50 mM Tris-HCl pH 7.6, 10% glycerol, 1.5 mM MgCl2, 1 mM EDTA, 1% Triton X-100) incubated with antibody against AmotL2 for 2 h at 4 °C, Protein G Sepharose; rabbit IgG as negative control; western blot.

Results are given in words; binding and its absence hold for the method and conditions named. In cells and extracts the contact can be indirect. Some binding calls cover weakened binding; strength is not graded here.

B1: β-catenin, endogenous in MDCK cells (protein, UniProt B6V8E6 1-781)
chain: MATQADLMELDMAMEPDRKAAVSHWQQQSYLDSGIHSGATTTAPSLSGKGNPEEEDVDTTQVLYEWEQGFSQSFTQEQVADIDGQYAMTRAQRVRAAMFPETLDEGMQIPSTQFDAAHPTNVQRLAEPSQMLKHAVVNLINYQDDAELATRAIPELTKLLNDEDQVVVNKAAVMVHQLSKKEASRHAIMRSPQMVSAIVRTMQNTNDVETARCTAGTLHNLSHHREGLLAIFKSGGIPALVKMLGSPVDSVLFYAITTLHNLLLHQEGAKMAVRLAGGLQKMVALLNKTNVKFLAITTDCLQILAYGNQESKLIILASGGPQALVNIMRTYTYEKLLWTTSRVLKVLSVCSSNKPAIVEAGGMQALGLHLTDPSQRLVQNCLWTLRNLSDAATKQEGMEGLLGTLVQLLGSDDINVVTCAAGILSNLTCNNYKNKMMVCQVGGIEALVRTVLRAGDREDITEPAICALRHLTSRHQEAEMAQNAVRLHYGLPVVVKLLHPPSHWPLIKATVGLIRNLALCPANHAPLREQGAIPRLVQLLVRAHQDTQRRTSMGGTQQQFVEGVRMEEIVEGCTGALHILARDVHNRIVIRGLNTIPLFVQLLYSPIENIQRVAAGVLCELAQDKEAAEAIEAEGATAPLTELLHSRNEGVATYAAAVLFRMSEDKPQDYKKRLSVELTSSLFRTEPMAWNETADLGLDIGAQGEPLGYRQDDPSYRSFHSGGYGQDALGMDPMMEHEMGGHHPGADYPVDGLPDLGHAQDLMDGLPPGDSNQLAWFDTDL
For B1, the binding result was “binds”.

These data come from article PMC5572699.
